Laboratory results: PMC7485968 (2020)
These are yes or no findings as the source states them, for the method shown. For some of these results: In cells and extracts the contact can be indirect. Some results given as binding are weak or reduced against the parent protein; the word gives no strength. Tags and fused reporters may be left off the sequences shown.

T1: His-tagged ERG (Homo sapiens (Human), UniProt P11308)
T1 chain: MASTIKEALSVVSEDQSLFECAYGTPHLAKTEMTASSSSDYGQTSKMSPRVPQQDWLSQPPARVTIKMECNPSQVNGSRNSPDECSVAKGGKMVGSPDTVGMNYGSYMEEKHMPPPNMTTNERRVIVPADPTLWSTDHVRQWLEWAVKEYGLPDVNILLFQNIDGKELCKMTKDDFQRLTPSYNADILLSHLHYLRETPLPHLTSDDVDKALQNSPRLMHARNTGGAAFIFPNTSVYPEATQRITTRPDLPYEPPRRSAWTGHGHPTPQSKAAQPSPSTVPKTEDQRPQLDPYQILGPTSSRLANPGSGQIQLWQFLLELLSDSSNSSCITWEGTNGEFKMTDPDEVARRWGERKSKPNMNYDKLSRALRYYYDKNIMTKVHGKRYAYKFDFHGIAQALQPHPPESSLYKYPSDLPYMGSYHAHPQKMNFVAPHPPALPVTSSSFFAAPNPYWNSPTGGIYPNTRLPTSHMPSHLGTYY


Key:
His-tagged ERG [1] = biological target: T1, His-tagged ERG; test: pull-down; purified His-ERG on cobalt beads (His-tag isolation dynabeads) as bait; 14 ug PC3 nuclear extract, 2 hrs at 4 degrees, NP-40 lysis buffer (250 mM NaCl); DMSO or Hit compounds A-D (62.5 uM; Hit B also 60, 45, 30 uM) added afterwards; EWS immunoblot; only the target purified
His-tagged ERG [2] = biological target: T1, His-tagged ERG; test: pull-down; purified His-ERG conjugated to cobalt beads (His-tag isolation dynabeads) as bait; purified FLAG-GST-EWS proteins pulled down; FLAG immunoblot; both purified
His-tagged ERG [3] = biological target: T1, His-tagged ERG; test: AlphaScreen or HTRF; AlphaScreen; His-ERG on nickel chelate acceptor beads, GST-tagged EWS 1-355aa on glutathione donor beads; cross titration 100, 30, 10, 3, 0 nM of each protein, 0.4 ug beads per well; 1x PBS + 0.5% BSA, room temperature; both purified

| binding (His-tagged ERG [1]) | binding (His-tagged ERG [2]) | binding (His-tagged ERG [3]) | Molecule |
| --- | --- | --- | --- |
| binds | – | – | native full-length EWS (from UniProt Q01844 1-656) |
| – | no binding | – | FLAG-GST-EWS 459-656aa (protein) PPREGRGMPPPLRGGPGGPGGPGGPMGRMGGRGGDRGGFPPRGPRGSRGNPSGGGNVQHRAGDWQCPNPGCGNQNFAWRTECNQCKAPKPEGFLPPPFPPPGGDRGRGGPGGMRGGRGGLMDRGGPGGMFRGGRGGDRGGFRGGRGMDRGGFGGGRRGGPGGPPGPLMEQMGGRRGGRGGPGKMDKGEHRQERRDRPY |
| – | binds | binds | FLAG-GST-EWS 1-355aa (protein) MASTDYSTYSQAAAQQGYSAYTAQPTQGYAQTTQAYGQQSYGTYGQPTDVSYTQAQTTATYGQTAYATSYGQPPTGYTTPTAPQAYSQPVQGYGTGAYDTTTATVTTTQASYAAQSAYGTQPAYPAYGQQPAATAPTRPQDGNKPTETSQPQSSTGGYNQPSLGYGQSNYSYPQVPGSYPMQPVTAPPSYPPTSYSSTQPTSYDQSSYSQQNTYGQPSSYGQQSSYGQQSSYGQQPPTSYPPQTGSYSQAPSQYSQQSSSYGQQSSFRQDHPSSMGVYGQESGGFSGPGENRSMSGPDNRGRGRGGFDRGGMSRGGRGGGRGGMGSAGERGGFNKPGGPMDEGPDLDLGPPVDPD |
